# Test results reported in PubChem BioAssay AID1259354 (Paczesny and Yang Labs, IUPUI and University of Michigan, 2018).
# The chains behind the UniProt entries cited, without tags or fusion partners. Where a name states a change or a piece, a line headed by the entry shows the natural chain unless it says otherwise.
# UniProt Q01638: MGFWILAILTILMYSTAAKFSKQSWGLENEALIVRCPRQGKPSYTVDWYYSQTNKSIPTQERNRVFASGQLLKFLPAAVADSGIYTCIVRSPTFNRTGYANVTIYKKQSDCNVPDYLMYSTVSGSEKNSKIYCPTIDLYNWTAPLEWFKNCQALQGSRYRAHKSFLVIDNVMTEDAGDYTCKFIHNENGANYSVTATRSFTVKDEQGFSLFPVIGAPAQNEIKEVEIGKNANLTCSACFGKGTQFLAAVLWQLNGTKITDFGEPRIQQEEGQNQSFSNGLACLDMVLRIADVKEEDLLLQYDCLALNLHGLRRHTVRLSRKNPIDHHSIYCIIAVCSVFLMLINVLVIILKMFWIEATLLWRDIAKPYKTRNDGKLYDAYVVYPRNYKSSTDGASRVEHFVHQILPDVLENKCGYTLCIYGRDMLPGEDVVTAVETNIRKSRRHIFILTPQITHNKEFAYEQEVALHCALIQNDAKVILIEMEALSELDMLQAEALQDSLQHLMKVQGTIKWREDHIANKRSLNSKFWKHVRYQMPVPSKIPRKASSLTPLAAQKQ
# Several values for one entry are separate records, joined by “and”; a condition that tells them apart may be missing. Equal values may be shown once. About 1,800 (2.3%) of roughly 78,000 compounds were called active. Inconclusive results, whose numbers are uncertain, are shown with a selection of clear calls. Cut-off read from the data, not from the text of the source: active = inhibition above about 30%; inconclusive = mostly about 10% to 28%; inactive = weaker than that.
# Target: Interleukin-1 receptor-like 1 (Homo sapiens) (UniProt Q01638)
# Assay: blocks human ST2 binding to IL-33, primary screen, biochemical, AlphaLISA (AID 1259354)
# Conditions: AlphaLISA ST2-Fc/biotin-IL-33 interaction, 1 h; at 17 µM, hits give high values
row,Structure (SMILES),inhibition
1,O=C(c1cc([N+](=O)[O-])cc([N+](=O)[O-])c1Cl)n1nnc2ccccc21,inconclusive: 10%
2,CSc1nc(N)nc(SCC(=O)c2ccc(C)cc2)c1C#N,inconclusive: 13%
3,CN(Cc1ccncn1)C(=O)c1cn(Cc2ccc(Cl)cc2)nn1,inactive
4,CCOc1ccccc1N1CCN(Cc2ccc(O)c(OC)c2)CC1,inconclusive: 13%
5,N#C/C(=C\c1cccs1)c1nc(-c2ccc(Cl)cc2)cs1,active: 46%
6,O=C(Cc1ccccc1)Nc1ccnn1C1CCN(Cc2nc3c(s2)CCCC3)CC1,inconclusive: 15%
7,C/C=C/C(O)CC(=O)O (stereo not given),inconclusive: 27%
8,N#C/C(=C\c1cc(Cl)ccc1O)c1nc2ccccc2[nH]1,active: 35%
9,Cc1ccc(CN2CCN(c3cncc(C(N)=O)n3)CC2)c2cccnc12,inactive
10,O=C(/C=C1\Sc2ccccc2N(Cc2ccc(F)cc2)C1=O)NCc1ccc2c(c1)OCO2,inconclusive: 20%
11,COC(=O)c1cc(Nc2ncnc3c2cnn3-c2cccc(C)c2)cc(C(=O)OC)c1,inconclusive: 19%
12,COc1ccc(-n2nc3c(c2NC(=O)c2ccc(F)cc2)CS(=O)C3)cc1 (stereo not given),inactive
13,CCOC(=O)c1c(NC(=O)C2CC2)sc2c1CCN(Cc1ccccc1)C2,inconclusive: 14%
14,Cc1ccc(N(C(=O)Cn2nnnc2N)C2(C(=O)Nc3c(C)cccc3C)CCCCC2)cc1C,inactive
15,O=C(NCc1ccccc1)c1ccc(Br)c(S(=O)(=O)N2CCOCC2)c1,inconclusive: 16%
16,Cc1ccc(C)c(N(CC(=O)Nc2ccc(I)cc2)S(C)(=O)=O)c1,inconclusive: 11%
17,O=C(C[C@@H]1CCNC[C@@H]1Cc1cc(CC2CCCCC2)on1)N1CCC(n2c(=O)[nH]c3ccccc32)CC1,inconclusive: 22%
18,COc1ccc(NS(=O)(=O)c2c(C)cc(C)nc2Cl)cc1,inactive
19,CC(=O)Nc1ccc(S(=O)(=O)Nc2cccc(Cl)c2C)cc1,inactive
20,O=C(CCC1CCCN(C(=O)C2(c3ccc(Cl)cc3)CCC2)C1)NC1CC1 (stereo not given),inactive
21,CNC(=O)CC(C)N(C)Cc1nc[nH]c1C (stereo not given),inconclusive: 15%
22,CC(=O)N1CCc2c(sc(NC(=O)c3nc4ccccc4s3)c2-c2nc3ccccc3s2)C1,inactive
23,O=C(C1CCCCN1S(=O)(=O)c1ccccc1)N1CCOCC1 (stereo not given),inactive
24,CC(C)C1CN(Cc2ccc(S(C)(=O)=O)cc2)CCCN1CC1CC1 (stereo not given),inconclusive: 17%

row,Structure (SMILES),inhibition
1,Cc1ccc(NS(=O)(=O)C[C@@]23CC[C@H](CC2=O)C3(C)C)c(C)c1,inconclusive: 10%
2,CC(C(=O)Nc1ccccc1C(F)(F)F)N1C(=O)c2ccccc2C1=O (stereo not given),inconclusive: 11%
3,COc1ncc(-c2ccc(-n3cccn3)cc2)c(OC)n1,inconclusive: 14%
4,CCNC(=O)O[C@@H]1CO[C@H]2[C@@H]1OC[C@@H]2NC(=S)Nc1ccccc1,inconclusive: 27%
5,COCC(=O)NC[C@H]1O[C@@H](CO)[C@@H](O)[C@H]1N1CCN(c2ccccc2)CC1,inconclusive: 13%
6,COc1ccc(C)cc1NC(=O)CSc1nc(-c2ccc3c(c2)OCO3)nc2cc(=O)[nH]n12,inactive
7,COc1ccc2cc3cc(C(=O)NCc4ccc(F)cc4)sc3nc2c1,active: 31%
8,CCOc1cc(/C=C2/NC(=O)NC2=O)cc(Cl)c1OCc1ccccc1F,inconclusive: 14%
9,Cc1ccccc1NC(=O)c1cc2cc(Cl)cc(Cl)c2oc1=O,inconclusive: 18%
10,O=C(N[C@H]1CCN2C(=O)c3cc(-c4ccc(Cl)cc4)ccc3NC(=O)[C@H]12)c1cccs1,inconclusive: 12%
11,CCCCN(Cc1ccco1)Cc1nn(C)cc1Cl,inconclusive: 10%
12,Cc1ccc(S(=O)(=O)N(CC(=O)NCc2ccco2)Cc2c(F)cccc2Cl)cc1,inconclusive: 10%
13,Cc1cccc(C)c1OC1CN(c2ccnc(C(=O)N3CCOCC3)c2)C1,inconclusive: 14%
14,O=C(NCCCN1CCCC1)C1CCN(c2ccc(-c3cccs3)nn2)CC1,inactive
15,CC(=O)N1c2c(cc(Br)cc2S(=O)(=O)Nc2ccc(F)c(F)c2)CC1C (stereo not given),inactive
16,N#CSCCCCOc1ccc(Br)cc1,inactive
17,Nn1nnc2ccccc21,inconclusive: 13%
18,CCOc1ccc(-c2cn(-c3ccc(F)cc3)c(=O)[nH]2)cc1Cl,inconclusive: 19%
19,Cc1cc(-n2cccn2)ccc1CN1CCN(c2cc(=O)[nH]c(N)n2)CC1,active: 40%
20,CCOCCn1c(=O)c2c(nc3n2CCN3c2cc(C)cc(C)c2)n(C)c1=O,inactive
21,O=C(Nc1ccc(Oc2ccccc2)cc1)c1ccc(Br)o1,inconclusive: 10%
22,CC(=O)c1ccc(N=Cc2ccc(Br)c([N+](=O)[O-])c2)cc1,inconclusive: 24%
23,COc1ccccc1Nc1ncc(-c2cccs2)s1,inconclusive: 15%
24,CC1=C(C(=O)Nc2cccnc2)C(c2ccncc2)n2nc(SCc3ccccc3)nc2N1 (stereo not given),inactive

# Not a retest: entries from further up.
row,Structure (SMILES),inhibition
19,Cc1cc(-n2cccn2)ccc1CN1CCN(c2cc(=O)[nH]c(N)n2)CC1,active: 40%
20,CCOCCn1c(=O)c2c(nc3n2CCN3c2cc(C)cc(C)c2)n(C)c1=O,inactive

# Further compounds follow:

row,Structure (SMILES),inhibition
1,O=C(Nc1ccccc1)c1ccc(S(=O)(=O)N2CCCCC2)cc1,inactive
2,CC1(C)CC(=O)C2=C(C1)OC1=C(C(=O)CC(C)(C)C1)C2c1ccc(-c2ccccc2F)o1,inconclusive: 18% and inconclusive: 11%
3,C=CCN(Cc1ccccc1OCC)C(=O)c1nc2c(C)cccn2c1F,inactive
4,CCCCn1cnc2sc3c(c2c1=N)CCCC3,inconclusive: 11%
5,CCOC(=O)c1c[nH]c2ccc(F)cc2c1=O,inactive
6,O=C(CC1(O)C(=O)N(Cc2ccc(Cl)cc2)c2ccccc21)c1ccc(F)cc1 (stereo not given),inconclusive: 18%
7,Cc1cccc(CSC2=NCCN2C(=O)c2c(F)cccc2F)c1,inactive
8,CCOc1ccc(C(=O)c2cc([N+](=O)[O-])ccc2N2CCOCC2)cc1,inconclusive: 13%
9,COc1ccc(CN(C)Cc2nc(NCc3cccs3)c3ccccc3n2)c2cccnc12,inconclusive: 11%
10,O=C(NC1CCCCCC1)C1c2ccccc2Oc2ccccc21,inconclusive: 21%
11,Cn1c(C(=O)Nc2ccccc2)cc2c(=O)n3ccccc3nc21,inconclusive: 20%
12,CC(=O)Nc1sc2c(c1C(=O)Nc1ccccc1C)CCCC2,inactive
13,CCNc1ccnc(N2CCN(Cc3ncnn3CC)CC2)n1,inconclusive: 18%
14,COc1ccc(S(=O)(=O)N[C@H]2C[C@@H](c3nc(-c4ccc(C)cc4)no3)N(C)C2)cc1,inconclusive: 25%
15,O=C(Cn1cnc2c(cnn2-c2ccc(Cl)cc2)c1=O)N1CCCCC1,inconclusive: 12%
16,Cc1ccn2c(Nc3ccccc3)c(-c3ccccn3)nc2c1,inconclusive: 12%
17,CNc1ncc(C(=O)N2CCCC(CCc3ccccc3C)C2)cn1 (stereo not given),inconclusive: 14%
18,CC(=O)N1CCC(N2C[C@H](O)C[C@H]2c2nc(-c3ccc(F)cc3)no2)CC1,inconclusive: 20%
19,CC1(C)CC(NC2CCN(c3ccc(NC(=O)Cc4cccc(Cl)c4)cc3)CC2)CCO1 (stereo not given),inconclusive: 12%
20,O=C(NCc1ccco1)c1cccn2c(=O)c3sccc3nc12,inconclusive: 17%
21,CCc1cccc(NC(=O)C2CCCC2)c1,inconclusive: 13%
22,Cc1cc(NC2CC(=O)N(CC(C)(C)C)C2)nc(-c2ccccc2)n1 (stereo not given),inconclusive: 15%
23,O=c1nc(/C=C/c2ccc(N3CCCC3)cc2)cc(C(F)(F)F)[nH]1,inconclusive: 18%
24,Cc1cccc2nc(-c3cccc([N+](=O)[O-])c3)oc(=O)c12,inconclusive: 13%

# Reformatted: results already given.
row	Structure (SMILES)	inhibition
18	CC(=O)N1CCC(N2C[C@H](O)C[C@H]2c2nc(-c3ccc(F)cc3)no2)CC1	inconclusive: 20%
19	CC1(C)CC(NC2CCN(c3ccc(NC(=O)Cc4cccc(Cl)c4)cc3)CC2)CCO1 (stereo not given)	inconclusive: 12%

# The listing continues.

row,Structure (SMILES),inhibition
1,Cc1[nH]nc2c1C(c1cccc3ccccc13)CC(=O)N2 (stereo not given),inactive
2,O=C(Cn1cnc2c(cnn2-c2ccccc2)c1=O)N1CCc2ccccc21,inactive
3,O=C(CCS(=O)(=O)c1ccc(Br)s1)NCCc1ccccc1Cl,inactive
4,C=CCN(CC=C)C(=O)CN1CC=C(n2c(=O)[nH]c3ccccc32)CC1,active: 31%
5,COc1ccccc1OCC(=O)Nc1cccc([N+](=O)[O-])c1C,inconclusive: 12%
6,Cc1cc(N2CCCCC2)nc(N2CCN(S(=O)(=O)c3ccc(Cl)cc3)CC2)n1,inactive
7,CC(C)CC(NC=C1C(=O)OC(C)(C)OC1=O)C(=O)O (stereo not given),inconclusive: 24%
8,COc1ccccc1Cc1noc(-c2ccc([N+](=O)[O-])cc2)n1,active: 47%
9,COc1cc([N+](=O)[O-])ccc1NC(=O)c1c(F)cccc1F,inactive
10,CC(C)c1cc(C(=O)N2CCC3(CC2)c2ccccc2[C@@H](N)[C@@H]3O)cs1,inconclusive: 19%
11,O=C(c1ccc(Br)cc1)N1CCN(c2ccc(N3CCOCC3)nn2)CC1,inconclusive: 13%
12,c1nc(C2CCCNC2)cc(N2CC3CC4CC2C[C@@H](C4)C3)n1 (stereo not given in full),inconclusive: 18%
13,CCOc1ccccc1CN(CC)Cc1coc2ccccc2c1=O,inconclusive: 16%
14,CC1(C)CC(=O)C2=C(C1)Nc1ccccc1NC2c1cc(F)ccc1F (stereo not given),inactive
15,Cc1ccc2[nH]c(CCCNC(=O)c3c(Cl)cnn3C)nc2c1C,inactive
16,OCC1COC(Cn2cncn2)(c2ccc(Cl)cc2Cl)O1 (stereo not given),inconclusive: 16%
17,Cc1ccccc1-n1c(-c2ccc(Br)cc2)cn2c3c(=O)n(C)c(=O)n(C)c3nc12,inactive
18,COC(=O)C1C(=O)C2=C(CC1C)NC(C)=C(C(=O)OCCOC(C)C)C2c1ccc(OC)cc1 (stereo not given),inactive
19,CCCN(CCC)C(=O)CN(C)S(=O)(=O)c1ccc2c(c1)CCC(=O)N2,inactive
20,CN(Cc1ccc2nsnc2c1)Cc1nc(Cc2ccccc2Cl)no1,inconclusive: 10%
21,O=C(c1cccs1)N1CCCCCC1,inactive
22,CCCOC1CCCN(Cc2nc(C3(c4ccc(C)cc4)CCCC3)no2)C1 (stereo not given),inactive
23,CCOC(=O)C1=C(N)OC2=C(C(=O)CC(c3ccccc3)C2)C1c1ccccc1Cl (stereo not given),inactive

# Part of the list above, with tabs:
row	Structure (SMILES)	inhibition
3	O=C(CCS(=O)(=O)c1ccc(Br)s1)NCCc1ccccc1Cl	inactive
4	C=CCN(CC=C)C(=O)CN1CC=C(n2c(=O)[nH]c3ccccc32)CC1	active: 31%
